Results deposited as PubChem BioAssay AID652243 (Drosophila RNAi Screening Center, 2013).

- Assay: 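Fly genes required for human androgen receptor driven transcription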 (primary screen)
- System: Drosophila S2R+ cells
- Reagent: long dsRNA against Drosophila genes
- Timing: 72 h (48 h, then 24 h hormone)
- Challenge: synthetic androgen R1881 at 10 nM for 24 h
- Measurement: 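Firefly light from an androgen-responsive reporter and Renilla control light per well, raw and unnormalised, for each of two replicates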
- Direction: firefly reporter light: higher = more light from androgen-responsive reporter; Renilla control light: higher = more constitutive control signal (cell number, transfection)
- Call rule: 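Hit when the log firefly-to-Renilla ratio dropped or increased by a fixed fold versus the mean of GFP or LacZ controls across duplicate plates; lowering cut given as 1.5 and as 3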
- Calls: active = hit: reporter lowered or raised; inactive = no hit
The screen tested about 24,000 reagents; below is a random part of those that have a named target and a result. In the full data, 246 (1%) are marked active. 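Plates not normalised; calls are printed but the firefly/Renilla ratio behind them is not deposited; fold cut for lowering reported inconsistently.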 Raw values vary from plate to plate and are shown uncorrected. Names joined by + are all predicted targets of the reagent. The record does not give: the amount of reagent.

target gene | dsRNA | firefly reporter light, replicate 1 | firefly reporter light, replicate 2 | Renilla control light, replicate 1 | Renilla control light, replicate 2 | Call
CG2765 | DRSC04315 | 9.21e5 | 1.09e6 | 1.26e6 | 1.81e6 | inactive
CG17819 | DRSC15279 | 2.58e5 | 2.55e5 | 2.97e6 | 3.67e6 | inactive
Sry-delta (Serendipity delta) | DRSC24964 | 3.34e5 | 3.74e5 | 8.27e5 | 4.89e5 | inactive
P5CDh1 (delta-1-Pyrroline-5-carboxylate dehydrogenase 1) | DRSC11801 | 51756 | 44265 | 4.14e5 | 3.81e5 | inactive
TwdlP (TweedleP) | DRSC14734 | 2.38e5 | 2.90e5 | 2.54e6 | 2.25e6 | inactive
CG4570 | DRSC15602 | 2.63e5 | 2.83e5 | 2.49e6 | 2.94e6 | inactive
CG4984 + CG4975 | DRSC06907 | 54674 | 79383 | 8.24e5 | 8.24e5 | inactive
CG4984 + CG4975 | DRSC06908 | 1.28e6 | 2.82e5 | 1.32e6 | 4.48e5 | inactive
betaTub56D (beta-Tubulin at 56D) | DRSC07583 | 57969 | 1.08e5 | 7.33e5 | 1.23e6 | inactive
betaTub56D (beta-Tubulin at 56D) | DRSC23516 | 3.83e5 | 5.20e5 | 5.80e5 | 6.64e5 | inactive
TbCMF46 | DRSC02221 | 1.33e5 | 96674 | 8.02e5 | 7.40e5 | inactive
TbCMF46 | DRSC36842 | – | – | – | – | inactive
Thor | DRSC00770 | 7.51e5 | 8.49e5 | 2.73e6 | 1.77e6 | inactive
fid (fire dancer) | DRSC14885 | 29193 | 27214 | 7.32e5 | 8.39e5 | inactive
fid (fire dancer) | DRSC16464 | 93277 | 1.15e5 | 1.84e6 | 2.08e6 | inactive
fid (fire dancer) | DRSC23529 | 5.04e5 | 6.42e5 | 8.16e5 | 8.79e5 | inactive
fid (fire dancer) | DRSC25230 | 1.56e6 | 1.47e6 | 1.09e6 | 8.56e5 | inactive
CG1532 | DRSC20516 | 75164 | 40375 | 5.22e5 | 2.86e5 | inactive
CG11275 | DRSC04095 | 3.20e5 | 4.38e5 | 2.26e6 | 1.94e6 | inactive
Pros28.2 (retired record) | DRSC16800 | 1.73e5 | 2.03e5 | 3.61e6 | 3.58e6 | inactive
Pros28.2 (retired record) | DRSC28895 | 2.75e5 | 2.81e5 | 1.10e6 | 1.01e6 | inactive
P58IPK | DRSC16404 | 1.63e5 | 1.19e5 | 3.29e6 | 2.88e6 | inactive
P58IPK | DRSC27012 | 4.00e5 | 3.67e5 | 9.23e5 | 7.68e5 | inactive
GstD7 (Glutathione S transferase D7) | DRSC16688 | 7.07e5 | 6.05e5 | 2.20e6 | 1.50e6 | inactive
GstD7 (Glutathione S transferase D7) | DRSC29907 | 4.39e5 | 2.79e5 | 1.21e6 | 8.46e5 | inactive
GlnRS (Glutaminyl-tRNA synthetase) | DRSC14140 | 62375 | 52774 | 4.19e5 | 4.49e5 | inactive
CG17140 + CG17139 | DRSC02585 | 2.32e5 | 2.11e5 | 1.36e6 | 1.59e6 | inactive
CG17140 + CG17139 | DRSC02586 | 1.53e5 | 1.80e5 | 1.13e6 | 1.19e6 | inactive
CG13369 | DRSC18481 | 1.71e5 | 2.33e5 | 3.16e6 | 2.23e6 | inactive
CG13369 | DRSC29455 | 7.73e5 | 6.45e5 | 9.16e5 | 9.16e5 | inactive
CG13369 | DRSC39309 | – | – | – | – | inactive
Ccp84Ac | DRSC12588 | 46369 | 64238 | 1.12e6 | 1.00e6 | inactive
Ccp84Ac | DRSC25631 | 7.65e5 | 7.87e5 | 1.09e6 | 1.09e6 | inactive
Snr1 (Snf5-related 1) | DRSC12369 | 23468 | 31606 | 1.97e5 | 1.90e5 | inactive
LManIV (Lysosomal alpha-mannosidase IV) | DRSC03222 | 2.37e5 | 2.29e5 | 1.98e6 | 1.88e6 | inactive
LManIV (Lysosomal alpha-mannosidase IV) | DRSC27811 | 2.92e5 | 2.36e5 | 4.69e5 | 7.08e5 | inactive
CR11235 (pseudo) | DRSC20480 | 4.19e5 | 1.57e5 | 1.01e6 | 5.63e5 | inactive
CR11235 (pseudo) | DRSC28870 | 8.24e5 | 7.43e5 | 1.26e6 | 1.34e6 | inactive
cic (capicua) | DRSC16918 | 99209 | 1.26e5 | 2.44e6 | 2.26e6 | active
cic (capicua) | DRSC21243 | 1.85e5 | 1.76e5 | 4.20e5 | 4.66e5 | inactive
cic (capicua) | DRSC23217 | 5.40e5 | 6.77e5 | 1.98e5 | 2.56e5 | inactive
cic (capicua) | DRSC25516 | 8.93e5 | 5.38e5 | 7.36e5 | 5.07e5 | inactive
cic (capicua) | DRSC25800 | 14178 | 16565 | 1.35e5 | 1.03e5 | inactive
cic (capicua) | DRSC30090 | 1.39e6 | 1.26e6 | 1.46e6 | 1.36e6 | inactive
mthl9 (methuselah-like 9) | DRSC08506 | 62697 | 66603 | 1.11e6 | 1.04e6 | inactive
CG10332 (retired record) + IM18 | DRSC04064 | 4.02e5 | 4.22e5 | 2.59e6 | 1.46e6 | inactive
blp (black pearl) | DRSC15757 | 1.36e5 | 1.62e5 | 2.51e6 | 2.96e6 | inactive
blp (black pearl) | DRSC28887 | 4.21e5 | 3.41e5 | 9.32e5 | 1.15e6 | inactive
robl (roadblock) | DRSC07674 | 1.20e5 | 1.60e5 | 1.90e6 | 1.90e6 | inactive
CG12729 | DRSC17884 | 1.73e5 | 2.93e5 | 1.94e6 | 2.08e6 | inactive
CG12729 | DRSC27092 | 1.78e5 | 2.90e5 | 3.90e5 | 4.49e5 | inactive
Sps2 (Selenophosphate synthetase 2) | DRSC03441 | 1.03e5 | 1.28e5 | 6.76e5 | 8.12e5 | inactive
CG10912 | DRSC06009 | 5.40e5 | 1.71e5 | 1.07e6 | 2.60e5 | inactive
CG10912 | DRSC25420 | 7.97e5 | 9.97e5 | 9.39e5 | 1.01e6 | inactive
CG9577 | DRSC20693 | 6.73e5 | 7.35e5 | 1.78e6 | 1.82e6 | inactive
CG9577 | DRSC27691 | 2.25e5 | 1.76e5 | 5.70e5 | 5.57e5 | inactive
CG3556 | DRSC18309 | 1.10e5 | 1.44e5 | 7.39e5 | 1.07e6 | inactive
CG3556 | DRSC27365 | 3.21e5 | 2.49e5 | 7.18e5 | 7.79e5 | inactive

5 entries already listed, arranged by “firefly reporter light, replicate 1”, high to low.
target gene | dsRNA | firefly reporter light, replicate 1 | firefly reporter light, replicate 2 | Renilla control light, replicate 1 | Renilla control light, replicate 2 | Call
GstD7 (Glutathione S transferase D7) | DRSC16688 | 7.07e5 | 6.05e5 | 2.20e6 | 1.50e6 | inactive
GstD7 (Glutathione S transferase D7) | DRSC29907 | 4.39e5 | 2.79e5 | 1.21e6 | 8.46e5 | inactive
CG17140 + CG17139 | DRSC02585 | 2.32e5 | 2.11e5 | 1.36e6 | 1.59e6 | inactive
CG17140 + CG17139 | DRSC02586 | 1.53e5 | 1.80e5 | 1.13e6 | 1.19e6 | inactive
GlnRS (Glutaminyl-tRNA synthetase) | DRSC14140 | 62375 | 52774 | 4.19e5 | 4.49e5 | inactive
